Data reported in the supplement of paper PMC4604168 (melanoma cell lines).
This is one part of the list. Single values are uncertain, as repeats are few or missing.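 The apoptosis fraction was the count of cleaved-PARP antibody-stained nuclei relative to all DNA-stained nuclei, imaged in 1,536-well plates. Screening doses were set so most cells survived, and baseline and induced cleaved-PARP levels vary greatly across cell lines.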

Experiments:
Experiment in all cases: cleaved PARP positive nuclei fraction relative to DMSO control; melanoma cells; higher = more apoptosis
Details in all cases: library dose: low library concentration; 72 h
[1] = system: WM115
[2] = system: WM1716
[3] = system: WM1745
[4] = system: WM3526
[5] = system: WM3619
[6] = system: WM451Lu

SMILES	cleaved PARP positive nuclei fraction [1]	cleaved PARP positive nuclei fraction [2]	cleaved PARP positive nuclei fraction [3]	cleaved PARP positive nuclei fraction [4]	cleaved PARP positive nuclei fraction [5]	cleaved PARP positive nuclei fraction [6]
CN(NC(=O)CC(=O)NN(C)C(=S)c1ccccc1)C(=S)c1ccccc1 + N#Cc1c(O)c2c(-c3ccc(-c4ccccc4O)cc3)csc2[nH]c1=O [A769662] (first compound 0.006 µM, partner dose 2 µM)	116%	186%	176%	70.4%	109%	102%
COc1ccc(-c2ccc3c(N4CCOCC4)nc(N4C[C@@H](C)O[C@@H](C)C4)nc3n2)cc1CO + O=c1cc(-c2cccc3c2Sc2ccccc2S3)oc(N2CCOCC2)c1 [KU55933] (first compound 0.02 µM, partner dose 1 µM)	59.8%	28.5%	99%	76.5%	205%	249%
COc1ccc2c(c1)CCC1C2CCC2(C)C(NCCCCCCN3C(=O)C=CC3=O)CCC12 (configuration not stated) + COc1ccc(COc2ccc(Cc3cnc(N)nc3N)cc2OC)cc1 [GW2580] (first compound 0.4 µM, partner dose 1 µM)	70.1%	129%	125%	72.2%	84.3%	275%
CCc1ccc(CCOc2ccc(CC3SC(=O)NC3=O)cc2)nc1 (configuration not stated) [pioglitazone] + Cc1cc([N+](=O)[O-])ccc1NS(=O)(=O)c1cc(Cl)ccc1Cl [FH535] (first compound 2 µM, partner dose 1 µM)	109%	117%	99.5%	69.7%	85.5%	135%
COC(=O)c1sccc1S(=O)(=O)Nc1ccc(Nc2ccccc2)cc1OC + O=S(=O)(c1ccccc1)N(CC(F)(F)F)c1ccc(C(O)(C(F)(F)F)C(F)(F)F)cc1 [T0901317] (first compound 1 µM, partner dose 1.4 µM)	99.6%	44.3%	127%	73.4%	74%	127%
Oc1cc(-c2nc(-c3ccccc3)[nH]c2-c2ccncc2)ccc1Cl + COc1cc(N2CCC(N3CCN(C)CC3)CC2)ccc1Nc1ncc(Cl)c(Nc2ccccc2S(=O)(=O)C(C)C)n1 [NVP-TAE684] (first compound 0.2 µM, partner dose 0.08 µM)	302%	64.6%	158%	221%	99.7%	117%
O=C(O)c1ccc(-c2c[nH]c3ncc(-c4ccccc4)cc23)cc1C1CCCC1 + Cc1cc([N+](=O)[O-])ccc1NS(=O)(=O)c1cc(Cl)ccc1Cl [FH535] (first compound 0.16 µM, partner dose 1 µM)	175%	179%	114%	91.8%	325%	207%
COc1cc2c(Oc3ccc4[nH]c(C)cc4c3F)ncnc2cc1OCCCN1CCCC1 [cediranib] + CC(C)CCN1c2nc(Nc3cc(F)c(O)c(F)c3)ncc2N(C)C(=O)C1C [BID1870] (first compound 0.4 µM, partner dose 0.2 µM)	149%	206%	118%	94.8%	68.9%	103%
CN(C)S(=O)(=O)c1ccc2c(c1)/C(=C/c1cc3c([nH]1)CCCC3)C(=O)N2 + O=C(Nc1ccccc1)c1cc([N+](=O)[O-])ccc1Cl [GW9662] (first compound 0.4 µM, partner dose 2 µM)	193%	57.3%	112%	61.9%	92.3%	41.8%
O=C(Nc1ccccc1)c1cc([N+](=O)[O-])ccc1Cl + O=C1NC(=O)/C(=C/c2ccc(-c3ccc(F)cc3O)o2)S1 [AS252424] (first compound 2 µM, partner dose 1 µM)	127%	81.1%	104%	65.8%	93.5%	56%
O=S(=O)(c1ccccc1)N(CC(F)(F)F)c1ccc(C(O)(C(F)(F)F)C(F)(F)F)cc1 + O=C(O)C(=O)Nc1sc2c(c1C(=O)O)CCNC2 [TCS401] (first compound 1.4 µM, partner dose 1.66667 µM)	61.8%	82%	127%	65%	86%	85.5%
Oc1cc(-c2nc(-c3ccccc3)[nH]c2-c2ccncc2)ccc1Cl + O=c1cc(-c2cccc3c2Sc2ccccc2S3)oc(N2CCOCC2)c1 [KU55933] (first compound 0.2 µM, partner dose 1 µM)	195%	33.9%	113%	95.6%	84.1%	364%
CCc1ccc(CCOc2ccc(CC3SC(=O)NC3=O)cc2)nc1 (configuration not stated) [pioglitazone] + O=c1cc(-c2cccc3c2Sc2ccccc2S3)oc(N2CCOCC2)c1 [KU55933] (first compound 2 µM, partner dose 1 µM)	145%	127%	99.3%	65.5%	88.3%	114%
N#Cc1c(O)c2c(-c3ccc(-c4ccccc4O)cc3)csc2[nH]c1=O + CCN(CC)CCCCNc1ncc2cc(-c3cc(OC)cc(OC)c3)c(NC(=O)NC(C)(C)C)nc2n1 [PD173074] (first compound 2 µM, partner dose 0.1 µM)	96.8%	85.6%	98.9%	107%	79%	105%
COc1cc2ncnc(Nc3ccc(Oc4ccccc4)cc3)c2cc1OC + CCCCCCCCCCCC1=C(O)C(=O)C=C(O)C1=O [Embelin] (first compound 2 µM, partner dose 1.2 µM)	68.2%	96.8%	115%	121%	132%	90.1%
O=C(O)c1ccc(-c2c[nH]c3ncc(-c4ccccc4)cc23)cc1C1CCCC1 + COc1ccc2c(c1)CCC1C2CCC2(C)C(NCCCCCCN3C(=O)C=CC3=O)CCC12 [U73122] (first compound 0.16 µM, partner dose 0.4 µM)	138%	72.3%	112%	137%	85.9%	66.5%
COc1ccc2c(c1)CCC1C2CCC2(C)C(NCCCCCCN3C(=O)C=CC3=O)CCC12 (configuration not stated) + O=S(=O)(c1ccccc1)N(CC(F)(F)F)c1ccc(C(O)(C(F)(F)F)C(F)(F)F)cc1 [T0901317] (first compound 0.4 µM, partner dose 1.4 µM)	50.1%	187%	598%	34.2%	136%	74.6%
NCC(=O)Nc1ccc(-n2nc(C(F)(F)F)cc2-c2ccc3c(ccc4ccccc43)c2)cc1 + COc1ccc(COc2ccc(Cc3cnc(N)nc3N)cc2OC)cc1 [GW2580] (first compound 1 µM, partner dose 1 µM)	162%	120%	114%	123%	145%	196%
O=S(=O)(c1ccccc1)N(CC(F)(F)F)c1ccc(C(O)(C(F)(F)F)C(F)(F)F)cc1 + c1cc(-c2cnn3cc(-c4ccc(OCCN5CCCCC5)cc4)cnc23)ccn1 [Dorsomorphin] (first compound 1.4 µM, partner dose 0.4 µM)	43.2%	141%	116%	73.8%	68%	88.6%
O=C(Nc1ccccc1)c1cc([N+](=O)[O-])ccc1Cl + O=S(=O)(c1ccccc1)N(CC(F)(F)F)c1ccc(C(O)(C(F)(F)F)C(F)(F)F)cc1 [T0901317] (first compound 2 µM, partner dose 1.4 µM)	53.4%	98.2%	125%	35.4%	112%	84.7%
COc1ccc(-c2ccc3c(N4CCOCC4)nc(N4C[C@@H](C)O[C@@H](C)C4)nc3n2)cc1CO + CCN(CC)CCCCNc1ncc2cc(-c3cc(OC)cc(OC)c3)c(NC(=O)NC(C)(C)C)nc2n1 [PD173074] (first compound 0.02 µM, partner dose 0.1 µM)	47.3%	53.7%	104%	77.5%	105%	116%
COc1cc2c(Oc3ccc4[nH]c(C)cc4c3F)ncnc2cc1OCCCN1CCCC1 [cediranib] + CCN(CC)CCCCNc1ncc2cc(-c3cc(OC)cc(OC)c3)c(NC(=O)NC(C)(C)C)nc2n1 [PD173074] (first compound 0.4 µM, partner dose 0.1 µM)	68%	98.7%	106%	63.7%	85.8%	251%
CN(NC(=O)CC(=O)NN(C)C(=S)c1ccccc1)C(=S)c1ccccc1 + c1cc(-c2cnn3cc(-c4ccc(OCCN5CCCCC5)cc4)cnc23)ccn1 [Dorsomorphin] (first compound 0.006 µM, partner dose 0.4 µM)	332%	117%	191%	146%	161%	55.4%
COc1cc2ncnc(Nc3ccc(Oc4ccccc4)cc3)c2cc1OC + Cc1cc([N+](=O)[O-])ccc1NS(=O)(=O)c1cc(Cl)ccc1Cl [FH535] (first compound 2 µM, partner dose 1 µM)	35.1%	76%	128%	75.8%	130%	31.8%
O=C(O)c1ccc(-c2c[nH]c3ncc(-c4ccccc4)cc23)cc1C1CCCC1 + CC(C)CCN1c2nc(Nc3cc(F)c(O)c(F)c3)ncc2N(C)C(=O)C1C [BID1870] (first compound 0.16 µM, partner dose 0.2 µM)	199%	99.3%	103%	143%	81.5%	38.5%
COc1cc2ncnc(Nc3ccc(Oc4ccccc4)cc3)c2cc1OC + O=C1NC(=O)/C(=C/c2ccc(-c3ccc(F)cc3O)o2)S1 [AS252424] (first compound 2 µM, partner dose 1 µM)	121%	79.4%	126%	70.9%	87.9%	102%
CN(NC(=O)CC(=O)NN(C)C(=S)c1ccccc1)C(=S)c1ccccc1 + O=C(Nc1ccccc1)c1cc([N+](=O)[O-])ccc1Cl [GW9662] (first compound 0.006 µM, partner dose 2 µM)	81.9%	147%	175%	31.4%	256%	22.3%

Exported with each value named: entries from further up
COc1ccc2c(c1)CCC1C2CCC2(C)C(NCCCCCCN3C(=O)C=CC3=O)CCC12 (configuration not stated) + COc1ccc(COc2ccc(Cc3cnc(N)nc3N)cc2OC)cc1 [GW2580] (first compound 0.4 µM, partner dose 1 µM)
  cleaved PARP positive nuclei fraction [1]: 70.1%
  cleaved PARP positive nuclei fraction [2]: 129%
  cleaved PARP positive nuclei fraction [3]: 125%
  cleaved PARP positive nuclei fraction [4]: 72.2%
  cleaved PARP positive nuclei fraction [5]: 84.3%
  cleaved PARP positive nuclei fraction [6]: 275%
CCc1ccc(CCOc2ccc(CC3SC(=O)NC3=O)cc2)nc1 (configuration not stated) [pioglitazone] + Cc1cc([N+](=O)[O-])ccc1NS(=O)(=O)c1cc(Cl)ccc1Cl [FH535] (first compound 2 µM, partner dose 1 µM)
  cleaved PARP positive nuclei fraction [1]: 109%
  cleaved PARP positive nuclei fraction [2]: 117%
  cleaved PARP positive nuclei fraction [3]: 99.5%
  cleaved PARP positive nuclei fraction [4]: 69.7%
  cleaved PARP positive nuclei fraction [5]: 85.5%
  cleaved PARP positive nuclei fraction [6]: 135%
